# Source: patent publication US20230174690A1, “COMPOSITIONS AND METHODS FOR SINGLE-STEP MULTIPURPOSE SURFACE FUNCTIONALIZATION” (Rutgers, The State University of New Jersey, priority 2019, published 2023)
# Experiment: Modified MicroBCA assay of Cu(I) production from Cu(II)
# Conditions: 10 mM compound with CuSO4 5 mM; 37° C., 30 min
compound,measurement,value
"C#CCOCCOCCNC(=O)[C@@H](N)Cc1ccc(O[Si](C)(C)C(C)(C)C)c(O[Si](C)(C)C(C)(C)C)c1 [S3, (5)-2-amino-3-(3,4-bis((tert-butyldimethylsilyl)oxy)phenyl)-N-(2-(2-(prop-2-yn-1-yloxy)ethoxy)ethyl)-propanamide]",Cu(I) production (violet colour of the Cu(I)-BCA complex),no color formation was observed
